Experiment [1] addresses T1, TFAM (human (endogenous in HEK293T)) (UniProt Q00059).
T1 sequence: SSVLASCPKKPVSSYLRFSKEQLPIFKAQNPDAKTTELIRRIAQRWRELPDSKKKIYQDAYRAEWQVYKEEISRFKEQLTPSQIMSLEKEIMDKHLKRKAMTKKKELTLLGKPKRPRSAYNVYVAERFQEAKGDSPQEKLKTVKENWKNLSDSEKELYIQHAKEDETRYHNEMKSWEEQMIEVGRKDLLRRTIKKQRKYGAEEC
Description: co-IP; anti-TFAM antibody (mouse, ab119684) on 2-4 mg HEK293T cell extract, overnight at 4°C, protein G agarose; IP lysis buffer 50 mM Tris-HCl pH 7.4, 100 mM NaCl, 1 mM EDTA, 5% glycerol, 0.1% SDS, 1% NP-40; mouse IgG control; immunoblot. Background: In western blotting, separated proteins are transferred to a membrane and probed.

Sequences of proteins named here, by UniProt entry; tags and fusion partners are left off.
UniProt Q9UJA3: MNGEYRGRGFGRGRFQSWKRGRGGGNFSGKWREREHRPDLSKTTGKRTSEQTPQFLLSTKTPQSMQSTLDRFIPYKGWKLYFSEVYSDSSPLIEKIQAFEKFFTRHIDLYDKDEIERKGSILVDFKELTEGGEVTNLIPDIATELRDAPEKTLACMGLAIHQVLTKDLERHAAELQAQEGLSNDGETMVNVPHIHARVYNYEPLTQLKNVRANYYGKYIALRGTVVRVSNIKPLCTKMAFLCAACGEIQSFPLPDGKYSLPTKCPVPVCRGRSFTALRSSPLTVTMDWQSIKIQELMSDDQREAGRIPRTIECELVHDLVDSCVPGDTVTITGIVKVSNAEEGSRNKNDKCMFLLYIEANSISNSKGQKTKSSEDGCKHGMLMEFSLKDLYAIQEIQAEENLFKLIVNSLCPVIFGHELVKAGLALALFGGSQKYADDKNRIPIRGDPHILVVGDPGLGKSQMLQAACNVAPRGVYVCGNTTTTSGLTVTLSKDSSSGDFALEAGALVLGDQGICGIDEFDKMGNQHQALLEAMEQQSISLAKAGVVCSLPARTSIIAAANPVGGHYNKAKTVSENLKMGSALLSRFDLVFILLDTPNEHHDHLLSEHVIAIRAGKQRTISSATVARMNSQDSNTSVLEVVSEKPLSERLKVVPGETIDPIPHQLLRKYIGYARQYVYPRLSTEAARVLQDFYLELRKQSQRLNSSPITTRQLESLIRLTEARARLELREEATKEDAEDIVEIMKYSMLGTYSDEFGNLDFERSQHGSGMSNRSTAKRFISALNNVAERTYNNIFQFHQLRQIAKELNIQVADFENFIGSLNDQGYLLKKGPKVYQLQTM

Experiment [2] concerns the target MCM8 (human (endogenous in HEK293T)) (UniProt Q9UJA3). Nature of the experiment: co-IP; anti-MCM8 antibody (mouse, H00084515-M02) on 2-4 mg HEK293T cell extract, overnight at 4°C, protein G agarose; IP lysis buffer 50 mM Tris-HCl pH 7.4, 100 mM NaCl, 1 mM EDTA, 5% glycerol, 0.1% SDS, 1% NP-40; mouse IgG control; immunoblot.
Experiment [3] deals with T1, TFAM (human (endogenous in HEK293T)). Nature of the experiment: co-IP; anti-TFAM antibody (mouse, ab119684) on 2-4 mg HEK293T cell extract, overnight at 4°C, protein G agarose; IP lysis buffer 50 mM Tris-HCl pH 7.4, 100 mM NaCl, 1 mM EDTA, 5% glycerol, 0.1% SDS, 1% NP-40; mouse IgG control; immunoblot. The source holds these as a separate data set.

Read-outs that look alike come from different tables or passages of the source. These are yes or no findings as the source states them, for the method shown. Binding seen in cells or lysates may run through a third protein. Some results given as binding are weak or reduced against the parent protein; the word gives no strength.

Take MCM8 (from UniProt Q9UJA3 1-840): in experiment [1], the binding result was “binds”.

B1: TFAM (protein, UniProt Q00059 43-246)
chain: T1 sequence
For the molecule B1, the binding result in experiment [2] was “binds”.

B2: mtSSB (protein, UniProt Q04837 17-148)
chain: ESETTTSLVLERSLNRVHLLGRVGQDPVLRQVEGKNPVTIFSLATNEMWRSGDSEVYQLGDVSQKTTWHRISVFRPGLRDVAYQYVKKGSRIYLEGKIDYGEYMDKNNVRRQATTIIADNIIFLSDQTKEKE
Turning to B2, the binding entry in experiment [3] was “binds”; in experiment [2] it was “no binding”.

The values are drawn from publication PMC9652705.
